PubChem BioAssay AID652243, Drosophila RNAi Screening Center, 2013
In all, the deposit lists about 24,000 reagents; below is a random part of those with a known target gene and a result. Of all reagents, 246 (1%) got an active call. 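Plates not normalised; calls are printed but the firefly/Renilla ratio behind them is not deposited; fold cut for lowering reported inconsistently.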 Raw values are not corrected between plates. Reagents against one gene are numbered here. Names joined by + are all predicted targets of the reagent. No sequences are given here. Not given: the amount of reagent.

Test: 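Fly genes required for human androgen receptor driven transcription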 (primary screen)
Cell system: Drosophila S2R+ cells
Reagent: long dsRNA against Drosophila genes
Time to read-out: 72 h (48 h, then 24 h hormone)
Conditions: synthetic androgen R1881 at 10 nM for 24 h
Measured: 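Per-well raw luminescence of the androgen-driven firefly reporter and of the Renilla control, two replicates each, without normalisation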
Reading the numbers: firefly reporter light: higher = more light from androgen-responsive reporter; Renilla control light: higher = more constitutive control signal (cell number, transfection)
Rule for the call: 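Across duplicate plates, a knock-down whose log firefly/Renilla ratio shifted a set fold down or up from the GFP/LacZ control mean was a hit; the downward cut appears as both 1.5 and 3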
Meaning of the calls: active = hit: reporter lowered or raised; inactive = no hit

"firefly reporter light, replicate 1","firefly reporter light, replicate 2","Renilla control light, replicate 1","Renilla control light, replicate 2",activity call,target,reagent
1.00e6,7.91e5,2.14e6,1.70e6,inactive,CG5757,1
,,,,inactive,CG5757,2
38515,83243,6.91e5,6.91e5,inactive,CG5084,1
2.70e5,3.00e5,3.82e5,6.46e5,inactive,CG5084,2
1.21e6,1.24e6,2.16e6,2.65e6,inactive,Flo1 (Flotillin 1),1
9.52e5,8.26e5,1.62e6,1.34e6,inactive,Flo1 (Flotillin 1),2
1.60e5,2.09e5,3.19e6,2.92e6,inactive,CG11997,1
2.83e5,2.83e5,5.06e5,5.62e5,inactive,CG11997,2
2.35e5,2.63e5,2.20e6,1.85e6,inactive,COX7B (Cytochrome c oxidase subunit 7B),1
1.76e5,1.67e5,1.92e6,2.53e6,inactive,SP1029,1
3.57e5,2.55e5,9.77e5,4.97e5,inactive,SP1029,2
2.70e5,2.75e5,3.27e6,3.45e6,inactive,CG13409,1
5.23e5,8.82e5,2.70e6,2.49e6,inactive,CngB (Cyclic nucleotide-gated ion channel subunit B),1
9.27e5,6.13e5,1.37e6,6.09e5,inactive,CG31041,1
83203,1.04e5,1.28e6,1.28e6,inactive,PpY-55A (Protein phosphatase Y at 55A),1
9.14e5,9.21e5,1.10e6,9.29e5,inactive,PpY-55A (Protein phosphatase Y at 55A),2
3.96e5,3.01e5,3.78e5,1.32e5,inactive,PpY-55A (Protein phosphatase Y at 55A),3
2.51e5,3.27e5,8.80e5,1.13e6,inactive,Vps11 (Vacuolar protein sorting 11),1
1.12e6,9.81e5,2.51e6,2.22e6,inactive,Vps11 (Vacuolar protein sorting 11),2

Quoted from the entries so far for reference:
"firefly reporter light, replicate 1","firefly reporter light, replicate 2","Renilla control light, replicate 1","Renilla control light, replicate 2",activity call,target,reagent
83203,1.04e5,1.28e6,1.28e6,inactive,PpY-55A (Protein phosphatase Y at 55A),1
9.14e5,9.21e5,1.10e6,9.29e5,inactive,PpY-55A (Protein phosphatase Y at 55A),2
3.96e5,3.01e5,3.78e5,1.32e5,inactive,PpY-55A (Protein phosphatase Y at 55A),3
2.51e5,3.27e5,8.80e5,1.13e6,inactive,Vps11 (Vacuolar protein sorting 11),1

The list goes on:
"firefly reporter light, replicate 1","firefly reporter light, replicate 2","Renilla control light, replicate 1","Renilla control light, replicate 2",activity call,target,reagent
2.83e5,2.84e5,2.14e6,1.77e6,inactive,CG7115,1
5.06e5,4.27e5,8.27e5,7.82e5,inactive,CG7115,2
,,,,inactive,CG7115,3
1.62e5,2.11e5,1.63e6,1.88e6,inactive,CG11878,1
7.08e5,7.01e5,8.01e5,7.57e5,inactive,CG11878,2
4.37e5,6.17e5,1.24e6,1.29e6,inactive,botv,1
4.68e5,6.29e5,9.35e5,1.04e6,inactive,botv,2
2.17e5,3.44e5,3.04e6,1.24e6,inactive,CG4041,1
4.77e5,3.52e5,9.65e5,5.07e5,inactive,CG4041,2
,,,,inactive,CG4041,3
2.75e5,2.44e5,3.29e5,2.10e5,inactive,Mvk + CG33672 + spt4,1
1.22e6,1.14e6,1.09e6,1.67e6,inactive,Mvk + CG33672 + spt4,2
,,,,inactive,Mvk + CG33672 + spt4,3
7.68e5,7.59e5,1.02e6,8.11e5,inactive,CG9021,1
1.25e5,1.16e5,1.36e6,1.38e6,inactive,CG10477,1
1.30e6,1.45e6,1.32e6,1.02e6,inactive,CG10477,2
8.93e5,8.02e5,1.27e6,1.41e6,inactive,Prp31 (Pre-mRNA processing factor 31),1
2.78e5,2.87e5,1.78e6,1.57e6,inactive,clt (cricklet),1
56580,1.88e5,7.95e5,1.41e6,inactive,CG14000 + bchs,1
1.06e5,1.60e5,1.52e5,2.58e5,inactive,Gyc32E (Guanylyl cyclase at 32E),1
4.37e5,4.03e5,1.79e6,1.52e6,inactive,Gyc32E (Guanylyl cyclase at 32E),2
,,,,inactive,Gyc32E (Guanylyl cyclase at 32E),3
30428,50172,1.41e6,1.16e6,inactive,djl (don juan like),1
1.79e5,1.30e5,3.11e5,2.84e5,inactive,djl (don juan like),2
3.07e5,2.64e5,2.47e6,2.11e6,inactive,AANATL7 (Arylalkylamine N-acetyltransferase-like 7),1
1.43e6,1.09e6,3.07e6,2.63e6,inactive,JMJD4 (Jumonji domain containing 4),1
7.42e5,6.06e5,8.56e5,1.09e6,inactive,JMJD4 (Jumonji domain containing 4),2
7.58e5,6.09e5,2.65e6,1.49e6,inactive,Ent1 (Equilibrative nucleoside transporter 1),1
2.35e5,2.77e5,1.97e6,2.27e6,inactive,Phae2 (Phaedra 2),1
7.63e5,1.53e6,7.46e5,2.19e6,inactive,Iml1 (Increased minichromosome loss 1),1
2.28e5,2.54e5,1.87e6,2.42e6,inactive,ND-MNLL (NADH dehydrogenase (ubiquinone) MNLL subunit),1
4.56e5,3.00e5,3.21e6,2.07e6,inactive,CG12824,1
5.14e5,4.66e5,1.35e6,1.25e6,inactive,JIL-1 (JIL-1 kinase),1
,,,,inactive,JIL-1 (JIL-1 kinase),2
,,,,inactive,JIL-1 (JIL-1 kinase),3
8.05e5,1.02e6,1.59e6,1.06e6,inactive,metro (menage a trois),1
2.20e5,2.25e5,1.52e6,1.49e6,inactive,metro (menage a trois),2
2.50e5,2.81e5,4.19e5,4.55e5,inactive,metro (menage a trois),3
1.08e6,6.42e5,1.77e6,9.09e5,inactive,CG10428,1
